Results reported in PubChem BioAssay AID248 (DTP/NCI, 2004).
The list does not hold the whole screen: it gathers tests that were run many times, whatever their T/C, doses with no T/C, and many T/C values between a quarter and a half above the control. Further doses and runs are listed elsewhere. T/C gives the treated animals as a percentage of the vehicle group. Some doses have a count of surviving animals in place of a T/C: the source files T/C as zero there, which appears to mark a toxic dose or a test without result, not a measured value. Some doses without a T/C left all or most animals alive at the check, yet need not have been tolerated: survival well below the control is almost never listed, so the zero probably covers shortened survival too. Survivors were counted at the toxicity check, usually on the fifth day, unless a day is given; later deaths do not show. Schedules are NCI's codes, taken here to give the interval after Q, in days (D) or hours (H), and the number of doses after X. Some entries were tested several times; their values stand side by side, smallest first. Some molecules as drawn cover several salts, stereoisomers or complexes of the source; a dose is that of the sample tested. Some schedule codes hold Z or #, which are not explained here. Where survival is the endpoint, this PubChem deposit counts one and a half times the control or more as active, and values a quarter to a half above the control carry no call in these data; other NCI protocols may use other cut-offs. Some T/C values carry the count of animals alive at the toxicity check (mostly the fifth day); where none is given, no animal had died by that day.

Test system: L1210 leukemia ip in BDF1 mice, survival T/C
Assay: NCI In Vivo Anticancer Drug Screen. Data for tumor model L1210 Leukemia (intraperitoneal) in B6D2F1 (BDF1) mice
Conditions: T/C endpoint: mean survival time, higher T/C = longer survival
[1] = dose: 200.0 mg/kg/injection, schedule: Q01DX009 (ip), vehicle: saline
[2] = dose: 400.0 mg/kg/injection, schedule: Q01DX009 (ip), vehicle: saline
[3] = dose: 100.0 mg/kg/injection, schedule: Q01DX001 (ip), vehicle: saline
[4] = dose: 200.0 mg/kg/injection, schedule: Q01DX001 (ip), vehicle: saline
[5] = dose: 400.0 mg/kg/injection, schedule: Q01DX001 (ip), vehicle: saline

## O=C(NCCBr)c1ccc(N=Nc2ccccc2)cc1
dose: 100.0 mg/kg/injection, schedule: Q04DX003 (ip), vehicle: Klucel (hydroxypropylcellulose) (HPC)
  survivor count: 3 of 6
dose: 200.0 mg/kg/injection, schedule: Q04DX003 (ip), vehicle: Klucel (hydroxypropylcellulose) (HPC)
  survivor count: 0 of 6
dose: 400.0 mg/kg/injection, schedule: Q04DX003 (ip), vehicle: Klucel (hydroxypropylcellulose) (HPC)
  survivor count: 0 of 6

## C=CS(=O)(=O)Cc1ccc(Cl)cc1
dose: 100.0 mg/kg/injection, schedule: Q04DX002 (ip), vehicle: Klucel (hydroxypropylcellulose) (HPC)
  survivor count: 0 of 3
dose: 200.0 mg/kg/injection, schedule: Q04DX002 (ip), vehicle: Klucel (hydroxypropylcellulose) (HPC)
  survivor count: 0 of 3
dose: 400.0 mg/kg/injection, schedule: Q04DX002 (ip), vehicle: Klucel (hydroxypropylcellulose) (HPC)
  survivor count: 0 of 3

## COc1ccc(SC2CCCCC2OS(C)(=O)=O)cc1 (centres undefined)
dose: 400.0 mg/kg/injection, schedule: Q01DX001 (ip), vehicle: Klucel (hydroxypropylcellulose) (HPC)
  survivor count: 2 of 6

## OC1CCCCC1C1CCCCC1 (centres undefined)
dose: 200.0 mg/kg/injection, schedule: Q01DX009 (ip), vehicle: saline with Tween-80
  survivor count: 3 of 3

## CC(C)[As](=O)(O)O
[1]
  survivor count: 3 of 6
[2]
  survivor count: 0 of 6

## N/N=C\C=N\N
dose: 120.0 mg/kg/injection, schedule: Q01DX Z (ip), vehicle: saline
  survivor count: 0 of 6

## OCCOc1nc(Cl)nc(Cl)c1Cl (tested in a mixture with another compound)
dose: 100.0 mg/kg/injection, schedule: Q01DX009 (ip), vehicle: Klucel (hydroxypropylcellulose) (HPC)
  survivor count: 3 of 3
dose: 200.0 mg/kg/injection, schedule: Q01DX009 (ip), vehicle: Klucel (hydroxypropylcellulose) (HPC)
  survivor count: 2 of 3

## Nc1nc(N)c2cc(CNc3ccc(C(=O)NC(CC(=O)O)C(=O)O)cc3)ccc2n1 (centres undefined)
dose: 0.25 mg/kg/injection, schedule: Q01DX009 (ip), vehicle: saline
  T/C: 126 % of control
dose: 0.28 mg/kg/injection, schedule: Q01DX009 (ip), vehicle: saline
  T/C: 132, 140 [5 of 6 alive], 145 % of control
dose: 0.5 mg/kg/injection, schedule: Q01DX009 (ip), vehicle: saline
  T/C: 145 % of control
dose: 0.56 mg/kg/injection, schedule: Q01DX009 (ip), vehicle: saline
  T/C: 147 % of control
dose: 1.0 mg/kg/injection, schedule: Q01DX005 (iv), vehicle: saline
  T/C: 136 % of control
dose: 1.0 mg/kg/injection, schedule: Q## X003 (ip), vehicle: saline
  T/C: 128 % of control
dose: 1.0 mg/kg/injection, schedule: Q## X024 (ip), vehicle: saline
  T/C: 140 % of control
dose: 2.0 mg/kg/injection, schedule: Q01DX005 (iv), vehicle: saline
  T/C: 146 % of control
dose: 2.0 mg/kg/injection, schedule: Q03HX016 (ip), vehicle: saline
  T/C: 134 % of control
dose: 2.0 mg/kg/injection, schedule: Q## X003 (ip), vehicle: saline
  T/C: 132 % of control
dose: 2.5 mg/kg/injection, schedule: Q01DX009 (ip), vehicle: saline
  T/C: 128 % of control
dose: 4.0 mg/kg/injection, schedule: Q01DX005 (iv), vehicle: saline
  T/C: 134 % of control
dose: 4.0 mg/kg/injection, schedule: Q01DX009 (ip), vehicle: saline
  survivor count: 8 of 10
dose: 4.0 mg/kg/injection, schedule: Q03HX016 (ip), vehicle: saline
  T/C: 146 % of control
dose: 4.0 mg/kg/injection, schedule: Q08DX002 (ip), vehicle: saline
  T/C: 127 % of control
dose: 4.0 mg/kg/injection, schedule: Q## X008 (ip), vehicle: saline
  T/C: 129 % of control [9 of 10 alive]
dose: 5.0 mg/kg/injection, schedule: Q01DX001 (ip), vehicle: saline
  T/C: 134 % of control
dose: 6.25 mg/kg/injection, schedule: Q01DX001 (ip), vehicle: saline
  T/C: 132 % of control
dose: 8.0 mg/kg/injection, schedule: Q01DX001 (sc), vehicle: saline
  T/C: 132 % of control
dose: 8.0 mg/kg/injection, schedule: Q01DX005 (iv), vehicle: saline
  survivor count: 9 of 10
dose: 8.0 mg/kg/injection, schedule: Q08DX002 (ip), vehicle: saline
  T/C: 141 % of control
dose: 8.0 mg/kg/injection, schedule: Q## X008 (ip), vehicle: saline
  T/C: 134 % of control
dose: 10.0 mg/kg/injection, schedule: Q01DX001 (ip), vehicle: saline
  T/C: 147 % of control
dose: 10.0 mg/kg/injection, schedule: Q01DX009 (ip), vehicle: saline
  survivor count: 5 of 6
dose: 12.5 mg/kg/injection, schedule: Q01DX001 (ip), vehicle: saline
  T/C: 137 % of control
dose: 16.0 mg/kg/injection, schedule: Q01DX001 (ip), vehicle: saline
  T/C: 145 % of control
dose: 16.0 mg/kg/injection, schedule: Q01DX001 (sc), vehicle: saline
  T/C: 137 % of control
dose: 16.0 mg/kg/injection, schedule: Q## X003 (ip), vehicle: saline
  T/C: 130 % of control
dose: 16.0 mg/kg/injection, schedule: Q## X008 (ip), vehicle: saline
  T/C: 147 % of control
dose: 18.0 mg/kg/injection, schedule: Q01DX009 (ip), vehicle: saline
  survivor count: 5 of 6 and 6 of 6
dose: 20.0 mg/kg/injection, schedule: Q01DX009 (ip), vehicle: saline
  survivor count: 4 of 6
dose: 25.0 mg/kg/injection, schedule: Q01DX001 (ip), vehicle: saline
  T/C: 147 % of control
dose: 32.0 mg/kg/injection, schedule: Q01DX001 (sc), vehicle: saline
  T/C: 134 % of control
dose: 40.0 mg/kg/injection, schedule: Q01DX001 (ip), vehicle: saline
  survivor count: 3 of 4
dose: 50.0 mg/kg/injection, schedule: Q01DX001 (ip), vehicle: saline
  survivor count: 6 of 6
dose: 80.0 mg/kg/injection, schedule: Q01DX001 (ip), vehicle: saline
  survivor count: 3 of 4
[3]
  survivor count: 4 of 6
[4]
  survivor count: 3 of 6
[5]
  survivor count: 3 of 6

## COc1cc2c[n+](C)c3c4cc(OC)c(OC)cc4ccc3c2cc1OC
dose: 34.0 mg/kg/injection, schedule: Q01DX009 (ip), vehicle: saline
  T/C: 132 % of control
dose: 50.0 mg/kg/injection, schedule: Q01DX009 (ip), vehicle: saline
  T/C: 131 % of control
dose: 52.0 mg/kg/injection, schedule: Q01DX009 (ip), vehicle: saline
  T/C: 130 % of control
dose: 80.0 mg/kg/injection, schedule: Q01DX009 (ip), vehicle: saline
  T/C: 136 % of control
dose: 100.0 mg/kg/injection, schedule: Q01DX009 (ip), vehicle: saline
  T/C: 134 % of control
dose: 100.0 mg/kg/injection, schedule: Q01DX009 (ip), vehicle: water
  T/C: 128 % of control
dose: 120.0 mg/kg/injection, schedule: Q01DX009 (ip), vehicle: saline
  T/C: 138 % of control
dose: 200.0 mg/kg/injection, schedule: Q01DX009 (ip), vehicle: water
  survivor count: 2 of 6 and 3 of 6
dose: 270.0 mg/kg/injection, schedule: Q01DX009 (ip), vehicle: saline
  survivor count: 5 of 6
[2]
  survivor count: 6 of 6
dose: 400.0 mg/kg/injection, schedule: Q01DX009 (ip), vehicle: water
  survivor count: 0 of 6
dose: 400.0 mg/kg/injection, schedule: Q04DX003 (ip), vehicle: water
  T/C: 134 % of control
dose: 666.0 mg/kg/injection, schedule: Q04DX003 (ip), vehicle: water
  survivor count: 3 of 6

## C[CH2][Sn](/[CH]=C/C(C)(C)O)([CH2]C)[CH2]C
[1]
  survivor count: 1 of 3

## COc1cc(C(=O)O)c(Cc2ccccc2)c(OC)c1O
[3]
  survivor count: 4 of 4
[4]
  survivor count: 4 of 4
[5]
  survivor count: 4 of 4

## CCCC(=O)NC1CCC(CC2CCCCC2)CC1 (centres undefined)
dose: 400.0 mg/kg/injection, schedule: Q04DX003 (ip), vehicle: other
  survivor count: 3 of 6

## O=C1C(Cl)=C(NCCCCCCNC2=C(Cl)C(=O)c3ccccc3C2=O)C(=O)c2ccccc21
[4]
  survivor count: 2 of 4
[5]
  survivor count: 0 of 4

## CCCC(=O)Nc1cc(C)ccc1N=Nc1ccc(C)cc1
dose: 400.0 mg/kg/injection, schedule: Q01DX009 (ip), vehicle: saline with Tween-80
  survivor count: 6 of 6
dose: 400.0 mg/kg/injection, schedule: Q04DX002 (ip), vehicle: saline with Tween-80
  survivor count: 6 of 6
